Assay results as given in US20150132305A1.
Results are given in words; binding and its absence hold for the method and conditions named. Some binding calls cover weakened binding; strength is not graded here. For some of these results: Sequences can lack the tags named with a protein.

T1: recombinant Cad-11 EC1 human IgG1 fusion protein (R&D Systems Cat. No. 1790-CA-050) (human) (UniProt P55287)
T1 sequence: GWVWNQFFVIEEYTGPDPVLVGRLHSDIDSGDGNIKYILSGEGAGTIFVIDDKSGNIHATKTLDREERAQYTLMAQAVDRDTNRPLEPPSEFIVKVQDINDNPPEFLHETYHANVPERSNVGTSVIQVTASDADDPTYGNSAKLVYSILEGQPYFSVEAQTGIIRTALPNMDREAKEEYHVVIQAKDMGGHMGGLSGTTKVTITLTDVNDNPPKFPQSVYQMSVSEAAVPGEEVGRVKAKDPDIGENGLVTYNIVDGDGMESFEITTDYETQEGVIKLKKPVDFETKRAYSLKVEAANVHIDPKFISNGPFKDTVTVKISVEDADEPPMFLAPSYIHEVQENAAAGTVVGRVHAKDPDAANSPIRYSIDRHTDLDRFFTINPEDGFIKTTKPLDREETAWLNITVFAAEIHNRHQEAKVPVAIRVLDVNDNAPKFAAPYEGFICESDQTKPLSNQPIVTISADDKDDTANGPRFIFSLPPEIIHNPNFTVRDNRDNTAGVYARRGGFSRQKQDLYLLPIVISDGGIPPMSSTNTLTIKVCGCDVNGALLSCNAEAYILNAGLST

T2: recombinant his-tagged human Cad-11 (R&D Systems) (human) (UniProt P55287)
T2 sequence: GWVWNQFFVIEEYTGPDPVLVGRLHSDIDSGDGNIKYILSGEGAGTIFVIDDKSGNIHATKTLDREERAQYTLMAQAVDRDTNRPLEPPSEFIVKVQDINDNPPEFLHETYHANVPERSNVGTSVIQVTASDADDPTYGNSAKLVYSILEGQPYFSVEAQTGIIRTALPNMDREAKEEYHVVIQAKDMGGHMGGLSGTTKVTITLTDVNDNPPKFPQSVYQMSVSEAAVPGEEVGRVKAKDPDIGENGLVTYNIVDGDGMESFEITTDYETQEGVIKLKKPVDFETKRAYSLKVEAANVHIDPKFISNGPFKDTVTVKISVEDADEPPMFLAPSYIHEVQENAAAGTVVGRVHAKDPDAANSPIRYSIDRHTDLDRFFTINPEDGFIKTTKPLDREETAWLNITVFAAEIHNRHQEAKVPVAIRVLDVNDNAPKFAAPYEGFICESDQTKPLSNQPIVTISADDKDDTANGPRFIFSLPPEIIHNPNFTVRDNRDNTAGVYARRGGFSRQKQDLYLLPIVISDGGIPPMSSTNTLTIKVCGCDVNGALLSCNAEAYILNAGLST

T3: Cad-18 37-mer peptide linked to BSA (UniProt Q13634)
T3 sequence (peptide, linked to BSA, looked up): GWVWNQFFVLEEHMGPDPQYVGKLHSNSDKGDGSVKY

T4: Cad-20 37-mer peptide linked to BSA (UniProt Q9HBT6)
T4 sequence (peptide, linked to BSA, looked up): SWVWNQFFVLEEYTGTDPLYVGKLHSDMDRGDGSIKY

T5: Cad-24 37-mer peptide linked to BSA (UniProt Q86UP0)
T5 sequence (peptide, linked to BSA, looked up): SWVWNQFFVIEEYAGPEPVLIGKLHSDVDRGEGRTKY

T6: Cad-7 37-mer peptide linked to BSA (UniProt Q9ULB5)
T6 sequence (peptide, linked to BSA, looked up): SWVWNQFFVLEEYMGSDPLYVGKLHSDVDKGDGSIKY

T7: Cad-8 37-mer peptide linked to BSA (UniProt P55286)
T7 sequence (peptide, linked to BSA, looked up): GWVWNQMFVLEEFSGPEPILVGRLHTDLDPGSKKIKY

T8: Cad-9 37-mer peptide linked to BSA (UniProt Q9ULB4)
T8 sequence (peptide, linked to BSA, looked up): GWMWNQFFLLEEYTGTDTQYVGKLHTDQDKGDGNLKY


Tests used:
[1] = target: T1, recombinant Cad-11 EC1 human IgG1 fusion protein (R&D Systems Cat. No. 1790-CA-050) (human); assay: competition ELISA
[2] = target: T1, recombinant Cad-11 EC1 human IgG1 fusion protein (R&D Systems Cat. No. 1790-CA-050) (human); assay: competition ELISA on coated recombinant human Cad-11 EC1 fusion protein against biotinylated SYN0012 (0.1 µg/ml)
[3] = target: T2, recombinant his-tagged human Cad-11 (R&D Systems) (human); assay: SPR, rhCad-11 immobilised on the chip, SDP051 injected for 360 s (12.5 nM to 0.195 nM per paragraph 266; concentrations not printed on the sheet)
[4] = target: T3, Cad-18 37-mer peptide linked to BSA; assay: ELISA, BSA-coupled 37-mer cadherin peptide coated at 500 ng/ml, A450
[5] = target: T4, Cad-20 37-mer peptide linked to BSA; assay: as above
[6] = target: T5, Cad-24 37-mer peptide linked to BSA; assay: as above
[7] = target: T6, Cad-7 37-mer peptide linked to BSA; assay: as above
[8] = target: T7, Cad-8 37-mer peptide linked to BSA; assay: as above
[9] = target: T8, Cad-9 37-mer peptide linked to BSA; assay: as above

Row | Binder | binding [1] | binding [2] | binding [3] | binding [4] | binding [5] | binding [6] | binding [7] | binding [8] | binding [9]
1 | SDP021 humanized anti-Cad-11 EC1 antibody (Vκ1/VH2) (antibody, IgG4, V domains shown) VH: EVQLVQSGAEVKKPGASVKISCKASGYSFTGYFMNWVKQAPGQGLEWIGRINPYTGDTFYNQKFKGRATLTVDKSTSTAYMELSSLRSEDTAVYYCGRLGSRYWYFDVWGQGTTVTVSS VL: DVLMTQTPLSSPVTLGQPASISCRSSQSIIHSNGNTYLEWYLQKPGQSPQLLIYKVSNRFSGVPDRFTGSGSGTDFTLKISRVEAEDVGVYYCFQGSHVPWTFGQGTKLEIK | binds | binds |  | binds | binds | binds | binds | binds | 
2 | SDP031 humanized anti-Cad-11 EC1 antibody (Vκ1/VH3) (antibody, IgG4, V domains shown) VH: EVQLVQSGAEVKKPGASVKISCKASGYSFTGYFMNWVRQAPGQGLEWIGRINPYTGDTFYNQKFKGRATLTVDKSTSTAYMELSSLRSEDTAVYYCGRLGSRYWYFDVWGQGTTVTVSS VL: DVLMTQTPLSSPVTLGQPASISCRSSQSIIHSNGNTYLEWYLQKPGQSPQLLIYKVSNRFSGVPDRFTGSGSGTDFTLKISRVEAEDVGVYYCFQGSHVPWTFGQGTKLEIK | binds | binds |  | binds | binds | binds | binds | binds | 

Results, then the binder that gave them:

Row | binding [1] | binding [2] | binding [3] | binding [4] | binding [5] | binding [6] | binding [7] | binding [8] | binding [9] | Binder
3 | binds | binds | binds |  |  |  |  |  |  | SDP051 humanized anti-Cad-11 EC1 antibody (Vκ1/VH5) (antibody, IgG4, V domains shown) VH: EVQLVQSGAEVKKPGASVKVSCKASGYSFTGYFMNWVRQAPGQGLEWIGRINPYTGDTFYNQKFKGRVTITVDKSTSTAYMELSSLRSEDTAVYYCGRLGSRYWYFDVWGQGTTVTVSS VL: DVLMTQTPLSSPVTLGQPASISCRSSQSIIHSNGNTYLEWYLQKPGQSPQLLIYKVSNRFSGVPDRFTGSGSGTDFTLKISRVEAEDVGVYYCFQGSHVPWTFGQGTKLEIK
4 | binds | binds |  | binds | binds | binds | binds | binds | binds | SDP041 humanized anti-Cad-11 EC1 antibody (Vκ1/VH4) (antibody, IgG4, V domains shown) VH: EVQLVQSGAEVKKPGASVKVSCKASGYSFTGYFMNWVRQAPGQGLEWIGRINPYTGDTFYNQKFKGRATITVDKSTSTAYMELSSLRSEDTAVYYCGRLGSRYWYFDVWGQGTTVTVSS VL: DVLMTQTPLSSPVTLGQPASISCRSSQSIIHSNGNTYLEWYLQKPGQSPQLLIYKVSNRFSGVPDRFTGSGSGTDFTLKISRVEAEDVGVYYCFQGSHVPWTFGQGTKLEIK
